Assay [1] addresses Nlrp3 (mouse (endogenous in mouse cortex and primary microglia)) (UniProt Q8R4B8). Description: co-IP; anti-Nlrp3 coupled to Dynabeads, lysate of cortical tissue (Pierce IP lysis buffer) of WT and Pgam5-/- mice, sham or 48 h after TBI, overnight at 4 °C; IgG as negative control; immunoblot.
For assay [2], the target named is Phosphoglycerate mutase 5 (mouse (endogenous in mouse cortex and primary microglia)) (UniProt Q8BX10). Description: cross-linking; detergent-insoluble crude pellet of primary microglia (LPS + ATP) resuspended in CHAPS buffer, 4 mM DSS for 30 min, Western blot for monomers, dimers and oligomers.
The target of assay [3] is T1, Asc (mouse (endogenous in mouse cortex and primary microglia)), Q9EPB4.
T1 chain: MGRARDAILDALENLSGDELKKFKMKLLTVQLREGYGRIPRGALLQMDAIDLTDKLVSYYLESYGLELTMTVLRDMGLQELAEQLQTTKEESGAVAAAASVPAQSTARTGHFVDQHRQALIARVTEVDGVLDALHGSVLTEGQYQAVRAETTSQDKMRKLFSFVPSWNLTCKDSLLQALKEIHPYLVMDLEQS
Kind of assay: co-IP; anti-Asc coupled to Dynabeads, lysate of primary cortical microglia (WT, Pgam5-/- or Pgam5-shRNA, caspase8-shRNA) stimulated with LPS + ATP, overnight at 4 °C; IgG as negative control; immunoblot. To be noted: remark: other sources report otherwise.

Amino acid sequences for entries named in this document (tags omitted).
UniProt Q8R4B8: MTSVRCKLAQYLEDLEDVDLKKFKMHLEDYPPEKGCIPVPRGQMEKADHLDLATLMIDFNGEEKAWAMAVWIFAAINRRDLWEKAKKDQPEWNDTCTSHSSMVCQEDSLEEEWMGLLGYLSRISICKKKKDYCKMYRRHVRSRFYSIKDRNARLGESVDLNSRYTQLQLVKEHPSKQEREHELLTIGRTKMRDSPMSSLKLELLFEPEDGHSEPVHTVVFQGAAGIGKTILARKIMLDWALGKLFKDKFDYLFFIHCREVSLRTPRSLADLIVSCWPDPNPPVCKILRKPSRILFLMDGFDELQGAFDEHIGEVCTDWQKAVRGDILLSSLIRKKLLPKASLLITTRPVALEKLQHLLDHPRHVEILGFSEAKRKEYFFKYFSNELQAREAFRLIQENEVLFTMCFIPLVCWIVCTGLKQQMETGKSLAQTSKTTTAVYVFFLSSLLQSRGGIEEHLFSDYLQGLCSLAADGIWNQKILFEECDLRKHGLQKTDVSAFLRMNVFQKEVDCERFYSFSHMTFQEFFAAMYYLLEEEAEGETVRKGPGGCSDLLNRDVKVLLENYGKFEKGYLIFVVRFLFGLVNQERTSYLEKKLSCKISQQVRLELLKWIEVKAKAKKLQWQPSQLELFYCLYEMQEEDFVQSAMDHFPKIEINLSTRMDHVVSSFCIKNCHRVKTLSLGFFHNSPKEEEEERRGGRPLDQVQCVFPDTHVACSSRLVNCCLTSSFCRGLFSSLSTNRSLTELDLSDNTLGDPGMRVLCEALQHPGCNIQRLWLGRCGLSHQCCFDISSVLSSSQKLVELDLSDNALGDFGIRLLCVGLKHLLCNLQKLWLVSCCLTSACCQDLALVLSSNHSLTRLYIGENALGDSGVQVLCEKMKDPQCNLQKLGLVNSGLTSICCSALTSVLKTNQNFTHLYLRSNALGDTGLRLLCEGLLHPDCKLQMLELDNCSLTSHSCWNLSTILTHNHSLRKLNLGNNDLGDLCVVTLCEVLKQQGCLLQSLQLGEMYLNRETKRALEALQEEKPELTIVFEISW

Assay [4] has as its target T2, Asc (mouse (endogenous in mouse cortex and primary microglia)) (UniProt Q9EPB4).
T2 sequence: T1 chain
The assay is described as above.

Results are given in words; binding and its absence hold for the method and conditions named. In cells and extracts the contact can be indirect. Some binding calls cover weakened binding; strength is not graded here.

Binding data for three molecules are collected here from article PMC8511105.

B1: Phosphoglycerate mutase 5 (protein, UniProt Q8BX10 1-288)
chain: MAFRQALQLAACGLAGGSAAVLFSAVAVGKPRGGGDADTRATEPPAWTGARAGRGVWDTNWDRREPLSLINLKKRNVESGEDELTSRLDHYKAKATRHIFLIRHSQYHVDGSLEKDRTLTPLGREQAELTGLRLASLGLKFNKIVHSSMTRAVETTDIISKHLPGVSRVSTDLLREGAPIEPDPPVSHWKPEAVQYYEDGARIEAAFRNYIHRADARQEEDSYEIFICHANVIRYIVCRALQFPPEGWLRLSLNNGSITHLVIRPNGRVALRTLGDTGFMPPDKITRS
Regarding B1, the binding entry in assay [1] and in assay [2] was “binds” each time.

B2: caspase8, O89110 1-480 (protein)
chain: MDFQSCLYAIAEELGSEDLAALKFLCLDYIPHKKQETIEDAQKLFLRLREKGMLEEGNLSFLKELLFHISRWDLLVNFLDCNREEMVRELRDPDNAQISPYRVMLFKLSEEVSELELRSFKFLLNNEIPKCKLEDDLSLLEIFVEMEKRTMLAENNLETLKSICDQVNKSLLGKIEDYERSSTERRMSLEGREELPPSVLDEMSLKMAELCDSPREQDSESRTSDKVYQMKNKPRGYCLIINNHDFSKAREDITQLRKMKDRKGTDCDKEALSKTFKELHFEIVSYDDCTANEIHEILEGYQSADHKNKDCFICCILSHGDKGVVYGTDGKEASIYDLTSYFTGSKCPSLSGKPKIFFIQACQGSNFQKGVPDEAGFEQQNHTLEVDSSSHKNYIPDEADFLLGMATVKNCVSYRDPVNGTWYIQSLCQSLRERCPQGDDILSILTGVNYDVSNKDDRRNKGKQMPQPTFTLRKKLFFPP
Consider B2, for which, in assay [3], the binding result is “binds”.

B3: caspase1 (protein, UniProt P29452 1-402)
chain: MADKILRAKRKQFINSVSIGTINGLLDELLEKRVLNQEEMDKIKLANITAMDKARDLCDHVSKKGPQASQIFITYICNEDCYLAGILELQSAPSAETFVATEDSKGGHPSSSETKEEQNKEDGTFPGLTGTLKFCPLEKAQKLWKENPSEIYPIMNTTTRTRLALIICNTEFQHLSPRVGAQVDLREMKLLLEDLGYTVKVKENLTALEMVKEVKEFAACPEHKTSDSTFLVFMSHGIQEGICGTTYSNEVSDILKVDTIFQMMNTLKCPSLKDKPKVIIIQACRGEKQGVVLLKDSVRDSEEDFLTDAIFEDDGIKKAHIEKDFIAFCSSTPDNVSWRHPVRGSLFIESLIKHMKEYAWSCDLEDIFRKVRFSFEQPEFRLQMPTADRVTLTKRFYLFPGH
As to B3, the binding entry in assay [1] and in assay [4] was “binds” in each case.
